No constants are given. Whether binding was seen depends on the method and setting. In cells and extracts the contact can be indirect. Some results given as binding are weak or reduced against the parent protein; the word gives no strength.
Biological target: endogenous IRF5 of RAW264.7 macrophages (mouse (endogenous in RAW264.7)) (UniProt P56477)
Assay: co-IP; endogenous proteins of RAW264.7 macrophages stimulated with LPS for 10 min; immunoprecipitated with IRF5, PYK2 or isotype control antibody; 1% TX-100 lysis buffer; immunoblot

By UniProt entry, the sequences of proteins in these tests, tags left out.
UniProt P56477: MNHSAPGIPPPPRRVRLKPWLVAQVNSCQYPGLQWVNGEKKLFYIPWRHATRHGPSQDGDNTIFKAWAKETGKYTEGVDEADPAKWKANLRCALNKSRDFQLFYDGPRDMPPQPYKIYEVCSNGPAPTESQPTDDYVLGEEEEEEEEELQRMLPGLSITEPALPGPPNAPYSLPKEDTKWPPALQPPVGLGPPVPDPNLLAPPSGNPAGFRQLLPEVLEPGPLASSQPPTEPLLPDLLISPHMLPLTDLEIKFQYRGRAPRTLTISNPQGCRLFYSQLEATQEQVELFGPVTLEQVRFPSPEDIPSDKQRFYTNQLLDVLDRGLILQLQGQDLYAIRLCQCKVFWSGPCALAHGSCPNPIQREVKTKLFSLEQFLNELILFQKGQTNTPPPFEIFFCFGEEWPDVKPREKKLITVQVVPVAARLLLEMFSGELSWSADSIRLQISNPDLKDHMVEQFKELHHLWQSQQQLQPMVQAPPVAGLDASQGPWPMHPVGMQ
UniProt Q9QVP9: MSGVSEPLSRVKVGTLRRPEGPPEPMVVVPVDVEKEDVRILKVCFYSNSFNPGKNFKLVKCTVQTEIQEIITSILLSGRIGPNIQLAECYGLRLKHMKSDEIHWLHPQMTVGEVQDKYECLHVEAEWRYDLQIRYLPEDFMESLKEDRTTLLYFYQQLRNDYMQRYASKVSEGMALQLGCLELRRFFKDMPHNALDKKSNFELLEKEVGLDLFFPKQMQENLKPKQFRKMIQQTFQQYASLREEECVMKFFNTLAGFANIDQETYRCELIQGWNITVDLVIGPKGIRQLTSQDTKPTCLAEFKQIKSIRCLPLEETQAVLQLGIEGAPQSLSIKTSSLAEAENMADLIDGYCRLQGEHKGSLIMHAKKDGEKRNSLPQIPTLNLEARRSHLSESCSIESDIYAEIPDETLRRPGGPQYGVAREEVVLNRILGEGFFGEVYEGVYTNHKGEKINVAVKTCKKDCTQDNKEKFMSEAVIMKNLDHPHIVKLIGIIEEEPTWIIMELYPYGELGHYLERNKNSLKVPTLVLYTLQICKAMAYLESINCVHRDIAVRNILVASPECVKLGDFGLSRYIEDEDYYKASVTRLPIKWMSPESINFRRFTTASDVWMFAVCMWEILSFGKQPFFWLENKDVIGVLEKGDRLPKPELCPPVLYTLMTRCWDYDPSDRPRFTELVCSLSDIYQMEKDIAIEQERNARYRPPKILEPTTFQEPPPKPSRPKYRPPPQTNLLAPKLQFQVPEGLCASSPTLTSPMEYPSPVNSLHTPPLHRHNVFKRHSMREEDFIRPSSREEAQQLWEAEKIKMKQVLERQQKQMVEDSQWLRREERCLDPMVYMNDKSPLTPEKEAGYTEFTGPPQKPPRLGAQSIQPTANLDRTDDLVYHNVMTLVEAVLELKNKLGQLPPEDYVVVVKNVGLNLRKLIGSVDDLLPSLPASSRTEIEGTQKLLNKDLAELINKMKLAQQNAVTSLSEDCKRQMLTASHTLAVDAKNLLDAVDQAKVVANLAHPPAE

## endogenous PYK2 of RAW264.7 macrophages (from UniProt Q9QVP9 1-1009) (enzyme)
  binding: binds

Reference: PMC8602323
